Test results from patent US20170081698A1, “SURVIVAL ASSAYS FOR METAKARYOTIC STEM CELLS” (priority 2014, published 2017).

Tested on: HT-29 cells
Test: Microscopic cytology of bell shaped metakaryotic nuclei in treated HT-29 cells (Hoechst, DAPI, Feulgen staining)
Assay type: cell-based, human
Conditions: HT-29 cultures

## COc1ccc2cc([C@H](C)C(=O)O)ccc2c1 [naproxen]
  condensation of chromatin in bell shaped metakaryotic nuclei: do not induce the condensation of chromatin
